The assay addresses T1, commercially available mammalian cell-expressed His-tagged recombinant human MFG-E8 (R&D Systems, cat: 2767-MF) (human) (UniProt Q08431).
T1 sequence: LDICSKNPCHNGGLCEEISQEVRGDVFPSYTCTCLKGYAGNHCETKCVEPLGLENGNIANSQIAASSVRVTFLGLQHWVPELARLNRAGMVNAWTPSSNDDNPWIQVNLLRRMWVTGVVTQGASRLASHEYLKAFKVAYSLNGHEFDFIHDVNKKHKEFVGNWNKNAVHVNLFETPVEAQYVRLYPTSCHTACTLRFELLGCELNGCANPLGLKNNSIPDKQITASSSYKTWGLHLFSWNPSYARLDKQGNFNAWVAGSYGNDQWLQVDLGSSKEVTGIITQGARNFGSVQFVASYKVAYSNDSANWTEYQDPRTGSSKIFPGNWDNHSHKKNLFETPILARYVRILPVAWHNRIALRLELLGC
In words: cell adhesion assay; wells pre-coated with different concentrations of rhMFG-E8; fluorescently labelled SVEC4-10 cells added; after washes the percentage of cells that remained bound to the plate read on a fluorescence plate reader; also done with lyophilised, stored (-20 °C, up to 2 years) and reconstituted tag-free protein; only the target purified.

Sequences of proteins named here, by UniProt entry; tags and fusion partners are left off. A change or cut given only in a name is not applied to a line headed by its entry.
UniProt P43406: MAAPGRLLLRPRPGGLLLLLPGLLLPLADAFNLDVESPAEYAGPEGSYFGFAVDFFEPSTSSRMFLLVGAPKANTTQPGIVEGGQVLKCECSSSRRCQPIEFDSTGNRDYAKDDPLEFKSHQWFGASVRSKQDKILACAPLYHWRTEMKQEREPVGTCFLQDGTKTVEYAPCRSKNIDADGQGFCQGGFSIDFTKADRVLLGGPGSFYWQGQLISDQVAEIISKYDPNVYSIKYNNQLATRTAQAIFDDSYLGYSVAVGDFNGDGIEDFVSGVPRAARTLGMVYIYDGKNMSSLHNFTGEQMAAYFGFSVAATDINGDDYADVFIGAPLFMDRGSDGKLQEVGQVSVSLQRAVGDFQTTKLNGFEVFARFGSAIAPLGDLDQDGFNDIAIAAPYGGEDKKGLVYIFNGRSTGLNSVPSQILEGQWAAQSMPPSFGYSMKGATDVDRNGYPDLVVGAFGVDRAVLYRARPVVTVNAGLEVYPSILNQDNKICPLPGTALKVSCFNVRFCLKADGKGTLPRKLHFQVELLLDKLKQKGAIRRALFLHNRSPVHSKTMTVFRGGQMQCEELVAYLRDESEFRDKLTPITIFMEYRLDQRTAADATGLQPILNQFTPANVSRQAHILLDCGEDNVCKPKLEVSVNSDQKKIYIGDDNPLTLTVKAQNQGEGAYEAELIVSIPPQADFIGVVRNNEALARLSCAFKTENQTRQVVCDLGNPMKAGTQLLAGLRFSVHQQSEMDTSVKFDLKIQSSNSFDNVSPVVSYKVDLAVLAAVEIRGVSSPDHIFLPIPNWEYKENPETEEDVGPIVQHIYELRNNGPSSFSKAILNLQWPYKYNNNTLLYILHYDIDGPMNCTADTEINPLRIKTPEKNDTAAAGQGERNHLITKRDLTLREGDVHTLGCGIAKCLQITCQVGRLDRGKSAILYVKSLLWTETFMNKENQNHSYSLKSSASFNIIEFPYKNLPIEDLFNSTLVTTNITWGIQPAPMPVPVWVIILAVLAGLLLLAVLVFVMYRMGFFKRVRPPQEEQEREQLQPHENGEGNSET

These are yes or no findings as the source states them, for the method shown. Some entries that bind do so weakly or less than the wild type. Tags and fused reporters may be left off the sequences shown.

Turning to “αVβ3 integrin on the surface of mouse vascular endothelial cells SVEC4-10 (from UniProt P43406 31-1044; O54890 26-787) (complex)”, the binding result was “binds”.

The values are drawn from article PMC10719321.
